# Assay results taken from US20170246311A1, “PEPTIDES FOR BINDING ALTERNATIVELY ACTIVATED MACROPHAGES” (University of Washington, priority 2016, published 2017).
# “Also recorded” adds a separate entry of the source. Where two headings read alike, the source gives them in different places. At least one peptide structure holds a part that was inferred or is arguable (an end, a ring closure or a residue). Some entries share one result that the patent states for a list of compounds. Starred links: 1 amine or outer side, 2 acyl side, 3 side chain; linkers in the order of their positions; H or OH if unused. Positions of bridges follow the written chain, without caps; N, C: chain ends. Non-standard residues stand in square brackets, D forms with d. Residues, ends and D or L forms follow the SMILES beside them. *: point of attachment. Perfluorobiphenyl(4,4') = Fc1c(F)c([*:1])c(F)c(F)c1-c1c(F)c(F)c([*:2])c(F)c1F; SO2(p-C6F4)2 = O=S(=O)(c1c(F)c(F)c([*:1])c(F)c1F)c1c(F)c(F)c([*:2])c(F)c1F; Biotin = O=C1N[C@H]2[C@H](CS[C@H]2CCCCC(=O)*)N1
# Tests used:
# M2 macrophages = experiment: Binding study of biotinylated peptides on polarized bone marrow-derived macrophages (streptavidin-FITC, flow cytometry); type: cell-based, mouse; conditions: for binding activity to M2 macrophages (in words): biotinylated peptide, on ice 20 min; for Kd: half-maximal MFI, read-out: apparent dissociation constant (KD)
# Method: All animal handling protocols were approved by the University of Washington Institutional Animal Care and Use Committee. Bone marrow harvest was performed following the previously reported protocol. Briefly, femur and tibia were excised from 6-8 week-old female c57bl6/027 mice. Cuts were made on the ends of each bone, and RPMI 1640 medium was used to flush out bone marrow cells via 18G needle. The cells were cultured on petri dishes in RPMI 1640 medium supplemented with 20% donor horse serum, 1% antibiotic-antimycotic (AbAm), and 20 ng/mL M-CSF. After 7 d of culture, macrophages were activated by replacing M-CSF with 25 ng/mL IFN-γ and 100 ng/mL LPS for M1 macrophage or 25 ng/mL IL-4 for M2 macrophage. The macrophages were activated for 2 d and then scraped off the petri dishes with cell lifter for binding studies.
# Peptide solutions at different concentrations for binding study were prepared by dilutions from the stock solution (10 mg/mL in dH2O) with PBS containing 1% BSA (PBSA). M1 and M2 macrophages (50,000 cells/well) were seeded on a black 96-well plate and incubated in the peptide solutions on ice for 20 min. Unbound peptides were washed off with PBSA twice. The macrophages were subsequently incubated with streptavidin-FITC for 15 min on ice to probe for the bound peptides. Excess streptavidin-FITC was washed off with PBSA twice, and the macrophages were then resuspended in PBS for analysis by MACSQuant Flow Cytometer (Miltenyi Biotec, San Diego, Calif.). Propidium iodide was added to the samples before the data acquisition to discriminate dead cells. Flow cytometry data were analyzed with FlowJo Analysis Software (Tree Star, Ashland, Oreg.). Binding study of peptides post serum incubation was similarly performed with the following additions: The peptides (5 mM stock solution in H2O) were diluted in serum to a final concentration of 0.5 mM and incubated at 37° C. in an incubator. At each time point, an aliquot of the peptides was drawn and diluted in PBS to the final concentration for the binding study. The diluted aliquot was heated at 80° C. for 30 min to inactivate serum proteins, stored in a −20° C. freezer, and thawed for use in the binding study after aliquots at all time points were collected.
# All animal handling protocols were approved by the University of Washington Institutional Animal Care and Use Committee. Bone marrow-derived cells were harvested from female c57bl/6 mice as previously described. In brief, femurs and tibias of the mice were excised and flushed with RPMI 1640 medium via an 18G needle. The cells were cultured on petri dishes containing RPMI 1640 medium supplemented with 20% donor horse serum, 1% antibioticantimycotic (AbAm), and 20 ng/mL M-CSF. After 7 d in culture, the medium was replaced with an activation medium whereby M-CSF was replaced with 25 ng/mL IFN-γ and 100 ng/mL LPS for M1 activation or with 25 ng/mL IL-4 for M2 activation. For M1 activation medium, AbAm was replaced with 1% penicillin-streptomycin (Pen-Strep). After 2 d of activation, the activated macrophages were scraped off the petri dishes for binding studies.
# Biotinylated peptide stock solutions were prepared in H2O at 10 mg/mL concentration and quantified for the exact concentration using Quant*Tag Biotin quantification kit. The stock solutions were diluted in PBS with 1% BSA (PBSA) to different concentrations for binding studies. Activated macrophages were seeded on a black 96-well plate (50,000 cells/well) and incubated with the peptide solutions for 20 min on ice. The cells were washed twice with PBSA and subsequently incubated with streptavidin-FITC for 15 min on ice. After two additional washes, the cells were resuspended in PBS for analysis via MACSQuant Flow Cytometer (Miltenyi Biotec, San Diego, Calif.). Propidium iodide (PI) was added before running each sample to assess for cell viability. Data analysis was processed on FlowJo Analysis Software (Tree Star, Ashland, Oreg.). […]
# [1] = Serum stability study in normal mouse serum, analysis by MALDI-TOF MS; conditions: 37° C.
# [2] = Stability of purified peptide stock solution in water, PBS or PBSA; type: physicochemical; conditions: at least one day
SMILES,binding activity to M2 macrophages (in words) (M2 macrophages),time stable in serum before degradation products were observed [1],Kd (M2 macrophages; M2 macrophages),other results
"CC(C)[C@@H]1NC(=O)CNC(=O)[C@H](Cc2c[nH]c3ccccc23)NC(=O)[C@@H]2CCCN2C(=O)[C@H](CC(=O)O)NC(=O)[C@H](CCC(N)=O)NC(=O)[C@H](CCC(=O)O)NC(=O)[C@H](Cc2ccc(O)cc2)NC(=O)CNC(=O)[C@@H](N)CSc2c(F)c(F)c(c(F)c2F)-c2c(F)c(F)c(c(F)c2F)SC[C@@H](C(=O)N[C@H](CCCCN)C(=O)N[C@H](CCCCN)C(=O)N[C@H](CCCCN)C(=O)N[C@@H](CCCCNC(=O)CCCC[C@@H]2SC[C@@H]3NC(=O)N[C@@H]32)C(N)=O)NC(=O)CNC(=O)[C@H](Cc2ccc(O)cc2)NC(=O)[C@H](Cc2c[nH]c3ccccc23)NC(=O)[C@H](Cc2ccc(O)cc2)NC(=O)[C@H](CCCNC(=N)N)NC1=O [DFBP-cyclized M2pep(RY)Biotin] (H-CGYEQDPWGVRYWYGC[dK][dK][dK]K(Biotin)-NH2; linker 1-16 via Perfluorobiphenyl(4,4'))",strong binding activity even at 1 μM,–,–,"enhancement of binding activity by the RY modification compared to the original sequence (M2 macrophages; DFBP-cyclized peptide, M2 murine macrophages): about 4 fold; binding in PBS versus PBSA (PBS with 1% albumin) (M2 macrophages; M2 macrophages): no difference in binding"
"CC(C)[C@@H]1NC(=O)CNC(=O)[C@H](Cc2c[nH]c3ccccc23)NC(=O)[C@@H]2CCCN2C(=O)[C@H](CC(=O)O)NC(=O)[C@H](CCC(N)=O)NC(=O)[C@H](CCC(=O)O)NC(=O)[C@H](Cc2ccc(O)cc2)NC(=O)CNC(=O)[C@@H](N)CSSC[C@@H](C(=O)N[C@H](CCCCN)C(=O)N[C@H](CCCCN)C(=O)N[C@H](CCCCN)C(=O)N[C@@H](CCCCNC(=O)CCCC[C@@H]2SC[C@@H]3NC(=O)N[C@@H]32)C(N)=O)NC(=O)CNC(=O)[C@H](Cc2ccc(O)cc2)NC(=O)[C@H](Cc2c[nH]c3ccccc23)NC(=O)[C@H](Cc2ccc(O)cc2)NC(=O)[C@H](CCCNC(=N)N)NC1=O [cyclic M2pep(RY)Biotin, CGYEQDPWGVRYWYGCkkk] (H-CGYEQDPWGVRYWYGC[dK][dK][dK]K(Biotin)-NH2; disulfide 1-16)",–,at least 24 h,–,"Kd (M2 macrophages; M2 macrophages, listed as Disulfide-cyclized M2pep(RY)Biotin): 30 to 40 µM"
Cc1cn(C)nn1 [Triazole-cyclized M2pep(RY)Biotin],–,–,30 to 40 µM,–
CC(C)[C@@H]1NC(=O)CNC(=O)[C@H](Cc2c[nH]c3ccccc23)NC(=O)[C@@H]2CCCN2C(=O)[C@H](CC(=O)O)NC(=O)[C@H](CCC(N)=O)NC(=O)[C@H](CCC(=O)O)NC(=O)[C@H](Cc2ccc(O)cc2)NC(=O)CNC(=O)[C@@H](N)CSc2c(F)c(F)c(c(F)c2F)S(=O)(=O)c2c(F)c(F)c(c(F)c2F)SC[C@@H](C(=O)N[C@H](CCCCN)C(=O)N[C@H](CCCCN)C(=O)N[C@H](CCCCN)C(=O)N[C@@H](CCCCNC(=O)CCCC[C@@H]2SC[C@@H]3NC(=O)N[C@@H]32)C(N)=O)NC(=O)CNC(=O)[C@H](Cc2ccc(O)cc2)NC(=O)[C@H](Cc2c[nH]c3ccccc23)NC(=O)[C@H](Cc2ccc(O)cc2)NC(=O)[C@H](CCCNC(=N)N)NC1=O [DFS-cyclized M2pep(RY)Biotin] (H-CGYEQDPWGVRYWYGC[dK][dK][dK]K(Biotin)-NH2; linker 1-16 via SO2(p-C6F4)2),binds more strongly than the original cyclized analog,–,1.42 µM,fold lower KD than the other cyclic analogs (M2 macrophages; M2 macrophages): 15-30 fold; maximal MFI (M2 macrophages; M2 macrophages): lower maximal MFI than the DFBP analog; formation of the −20 Da side product in purified stock solution [2]: not observed
CC(C)[C@@H]1NC(=O)CNC(=O)[C@H](Cc2c[nH]c3ccccc23)NC(=O)[C@@H]2CCCN2C(=O)[C@H](CC(=O)O)NC(=O)[C@H](CCC(N)=O)NC(=O)[C@H](CCC(=O)O)NC(=O)[C@H](Cc2ccc(O)cc2)NC(=O)CNC(=O)[C@@H](N)CC(=O)NCCCC[C@@H](C(=O)N[C@H](CCCCN)C(=O)N[C@H](CCCCN)C(=O)N[C@H](CCCCN)C(=O)N[C@@H](CCCCNC(=O)CCCC[C@@H]2SC[C@@H]3NC(=O)N[C@@H]32)C(N)=O)NC(=O)CNC(=O)[C@H](Cc2ccc(O)cc2)NC(=O)[C@H](Cc2c[nH]c3ccccc23)NC(=O)[C@H](Cc2ccc(O)cc2)NC(=O)[C@H](CCCNC(=N)N)NC1=O [Amide-cyclized M2pep(RY)Biotin] (H-DGYEQDPWGVRYWYGK[dK][dK][dK]K(Biotin)-NH2; lactam 1-16),bind less strongly,at least 24 h,30 to 40 µM,–
CC(C)[C@@H]1NC(=O)CNC(=O)[C@H](Cc2c[nH]c3ccccc23)NC(=O)[C@@H]2CCCN2C(=O)[C@H](CC(=O)O)NC(=O)[C@H](CCC(N)=O)NC(=O)[C@H](CCC(=O)O)NC(=O)[C@H](Cc2ccc(O)cc2)NC(=O)CNC(=O)[C@H](Cc2ccccc2)NC(=O)[C@H](Cc2ccccc2)NC(=O)[C@@H](N)CSSC[C@@H](C(=O)N[C@H](CCCCN)C(=O)N[C@H](CCCCN)C(=O)N[C@H](CCCCN)C(=O)N[C@@H](CCCCNC(=O)CCCC[C@@H]2SC[C@@H]3NC(=O)N[C@@H]32)C(N)=O)NC(=O)CNC(=O)[C@H](Cc2ccc(O)cc2)NC(=O)[C@H](Cc2c[nH]c3ccccc23)NC(=O)[C@H](Cc2ccc(O)cc2)NC(=O)[C@H](CCCNC(=N)N)NC1=O [FF-cyclized M2pep(RY)Biotin] (H-CFFGYEQDPWGVRYWYGC[dK][dK][dK]K(Biotin)-NH2; disulfide 1-18),improves binding activity; also recorded: lower binding activity than DFBP-cyclized M2pep(RY)Biotin,–,–,–
